From ChEMBL document CHEMBL3988442, “University of Dundee, Small-Polar-MMV Screening Library” (2021).

Chains of the proteins cited; added tags and fusions are not shown. Residues count along the entry.
UniProt I6X8D2, whole entry: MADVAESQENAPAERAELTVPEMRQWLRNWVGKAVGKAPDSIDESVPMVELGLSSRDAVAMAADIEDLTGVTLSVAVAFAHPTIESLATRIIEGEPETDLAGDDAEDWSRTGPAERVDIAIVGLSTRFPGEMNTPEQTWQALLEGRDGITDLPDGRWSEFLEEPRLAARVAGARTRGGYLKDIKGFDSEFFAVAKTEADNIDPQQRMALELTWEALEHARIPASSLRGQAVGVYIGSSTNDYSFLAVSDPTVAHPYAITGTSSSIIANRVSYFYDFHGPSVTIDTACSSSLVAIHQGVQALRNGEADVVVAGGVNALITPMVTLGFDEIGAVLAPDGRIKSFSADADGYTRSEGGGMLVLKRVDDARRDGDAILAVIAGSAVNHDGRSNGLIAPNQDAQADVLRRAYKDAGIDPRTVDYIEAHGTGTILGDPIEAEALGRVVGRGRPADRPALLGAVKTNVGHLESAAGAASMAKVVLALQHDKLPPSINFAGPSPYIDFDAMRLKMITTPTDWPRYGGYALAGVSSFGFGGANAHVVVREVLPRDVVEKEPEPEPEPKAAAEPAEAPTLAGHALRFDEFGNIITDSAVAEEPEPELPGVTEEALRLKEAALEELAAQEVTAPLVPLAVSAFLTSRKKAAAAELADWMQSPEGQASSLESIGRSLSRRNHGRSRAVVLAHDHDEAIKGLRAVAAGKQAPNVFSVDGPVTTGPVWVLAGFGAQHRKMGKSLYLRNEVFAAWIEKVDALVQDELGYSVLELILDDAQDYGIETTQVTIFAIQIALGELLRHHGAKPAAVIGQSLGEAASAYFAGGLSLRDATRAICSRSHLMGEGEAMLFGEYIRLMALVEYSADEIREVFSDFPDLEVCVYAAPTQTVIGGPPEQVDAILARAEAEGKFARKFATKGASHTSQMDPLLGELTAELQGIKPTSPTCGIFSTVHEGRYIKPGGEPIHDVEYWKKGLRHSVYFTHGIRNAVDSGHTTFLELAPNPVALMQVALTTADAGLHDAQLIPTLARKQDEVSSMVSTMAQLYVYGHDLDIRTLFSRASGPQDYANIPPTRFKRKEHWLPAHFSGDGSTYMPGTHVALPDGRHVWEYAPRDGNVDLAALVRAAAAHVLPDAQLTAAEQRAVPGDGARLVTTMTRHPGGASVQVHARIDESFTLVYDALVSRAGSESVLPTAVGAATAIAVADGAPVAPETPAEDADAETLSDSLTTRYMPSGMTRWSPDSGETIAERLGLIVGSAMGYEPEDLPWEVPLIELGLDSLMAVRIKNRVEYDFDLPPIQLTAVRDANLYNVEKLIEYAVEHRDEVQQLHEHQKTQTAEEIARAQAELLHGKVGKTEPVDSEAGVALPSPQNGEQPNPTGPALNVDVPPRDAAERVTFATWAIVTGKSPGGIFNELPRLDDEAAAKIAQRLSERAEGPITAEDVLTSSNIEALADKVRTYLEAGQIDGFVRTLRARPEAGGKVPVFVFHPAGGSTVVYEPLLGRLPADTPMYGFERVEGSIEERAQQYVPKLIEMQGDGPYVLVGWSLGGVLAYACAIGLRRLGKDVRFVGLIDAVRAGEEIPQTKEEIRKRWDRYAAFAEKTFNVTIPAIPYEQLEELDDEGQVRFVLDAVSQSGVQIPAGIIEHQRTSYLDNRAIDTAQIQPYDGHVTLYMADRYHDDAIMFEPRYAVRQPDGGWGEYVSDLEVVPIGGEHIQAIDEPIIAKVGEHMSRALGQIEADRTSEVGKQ
UniProt P9WFT3, whole entry: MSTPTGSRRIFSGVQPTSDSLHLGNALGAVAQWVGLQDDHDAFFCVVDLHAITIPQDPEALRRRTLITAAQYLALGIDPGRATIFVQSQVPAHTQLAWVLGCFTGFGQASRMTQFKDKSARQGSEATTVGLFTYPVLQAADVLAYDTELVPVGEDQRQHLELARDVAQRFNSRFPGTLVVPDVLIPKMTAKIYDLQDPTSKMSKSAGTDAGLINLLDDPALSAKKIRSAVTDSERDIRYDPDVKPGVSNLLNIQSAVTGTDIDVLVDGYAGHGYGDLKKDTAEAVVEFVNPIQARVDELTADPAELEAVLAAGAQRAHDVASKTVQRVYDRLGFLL
UniProt P9WNZ1, whole entry: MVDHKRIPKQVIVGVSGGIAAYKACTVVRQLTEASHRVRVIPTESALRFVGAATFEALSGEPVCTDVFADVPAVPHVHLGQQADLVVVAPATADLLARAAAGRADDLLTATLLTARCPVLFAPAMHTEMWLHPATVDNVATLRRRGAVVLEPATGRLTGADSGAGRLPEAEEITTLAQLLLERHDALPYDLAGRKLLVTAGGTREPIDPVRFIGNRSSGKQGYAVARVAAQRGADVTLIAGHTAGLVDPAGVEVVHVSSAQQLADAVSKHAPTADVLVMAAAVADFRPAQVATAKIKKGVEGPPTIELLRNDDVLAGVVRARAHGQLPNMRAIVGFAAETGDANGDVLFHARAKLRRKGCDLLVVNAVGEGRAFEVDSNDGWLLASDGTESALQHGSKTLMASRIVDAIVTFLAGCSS
UniProt Q8IDJ8, 1-583: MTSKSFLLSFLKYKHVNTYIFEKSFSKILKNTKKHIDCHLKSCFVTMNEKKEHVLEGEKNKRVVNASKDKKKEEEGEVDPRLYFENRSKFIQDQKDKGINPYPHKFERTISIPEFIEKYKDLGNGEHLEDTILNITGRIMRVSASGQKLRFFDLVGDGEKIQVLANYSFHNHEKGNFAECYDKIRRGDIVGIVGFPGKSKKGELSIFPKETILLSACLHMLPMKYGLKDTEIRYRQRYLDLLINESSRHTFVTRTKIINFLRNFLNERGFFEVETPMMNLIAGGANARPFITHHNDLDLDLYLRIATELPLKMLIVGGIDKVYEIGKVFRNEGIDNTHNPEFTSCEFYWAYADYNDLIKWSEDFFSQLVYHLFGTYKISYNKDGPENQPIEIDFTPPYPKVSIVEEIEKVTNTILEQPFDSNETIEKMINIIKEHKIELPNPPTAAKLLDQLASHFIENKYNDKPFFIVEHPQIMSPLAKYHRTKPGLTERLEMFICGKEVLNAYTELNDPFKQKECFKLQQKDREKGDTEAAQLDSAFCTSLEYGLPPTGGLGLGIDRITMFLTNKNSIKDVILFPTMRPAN

The filed quantity is “Percent Effect” (%).
The controls that fix the scale are not given in the record; negative values are as filed.
The compounds are a random part of those screened.
A dash means the value is not listed here; it may have been measured.

Pks13 thioesterase: 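Polyketide synthase Pks13, Mycobacterium tuberculosis (UniProt I6X8D2). Enzyme assay of the thioesterase domain of polyketide synthase 13; the read-out is not stated. Tested at 30 µM. The record gives no direction; the compounds picked for IC50 retests had high values, so higher reads as stronger inhibition. Of about 67,000 compounds tested this way, about 300 (0.46%) reached 50% or more in at least one test.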
MtTrpRS: 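Enzyme assay of tryptophanyl-tRNA synthetase; the read-out is not stated. Target: Tryptophan-tRNA ligase, Mycobacterium tuberculosis (UniProt P9WFT3). Tested at 10 µM. Higher most likely means stronger inhibition; the record gives no direction and few retests gave an IC50. Of about 65,000 compounds tested this way, about 64 (0.098%) reached 50% or more in at least one test.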
CoaBC: 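Enzyme assay of CoaBC with a phosphate dye (Biomol Green) read at 650 nm. Target: Coenzyme A biosynthesis protein CoaBC, Mycobacterium tuberculosis (UniProt P9WNZ1). Concentration: 30 µM. Higher reads as stronger inhibition, judged from the few compounds that gave an IC50. Most strong results did not repeat in a second test. Size under these conditions: about 67,000 compounds, about 40 of them at 50% or above in at least one test.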
PfKRS1: 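Enzyme assay of the cytosolic lysyl-tRNA synthetase in 384-well plates, read by luminescence. Target: Lysine-tRNA ligase, Plasmodium falciparum 3D7 (UniProt Q8IDJ8). Compounds at 30 µM. Higher reads as stronger inhibition, judged from the few compounds that gave an IC50. About 69,000 compounds were tested under these conditions; 0.071% (about 49) showed 50% or more at least once.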

| structure | Pks13 thioesterase | MtTrpRS | CoaBC | PfKRS1 |
|---|---|---|---|---|
| `CC1=Nc2c(c(=O)[nH]n2C(C)C)C(c2ccc3c(c2)n(C)c(=O)n3C)S1` (configuration not stated) | -16.29% | -2.311% | 4.293% | 5.14% |
| `CCN(CC)C(=O)c1ccc(Cl)c(NC(=O)c2cc(C(C)C)on2)c1` | -32.96% | -0.9397% | -2.469% | 4.122% |
| `CC(C)NC(=O)[C@@H]1C[C@H]2NCC[C@H]2O1` | - | - | 1.728% | 3.535% |
| `O=C(O)C1(Cc2ccccc2Cl)CCN(c2ncccc2F)CC1` | -11.88% | -3.793% | -1.066% | 1.249% |
| `Nc1ncc(-c2ccc(Cl)cc2)c(C2CCCNC2)n1` (configuration not stated) | -53.87% | 9.679% | 1.598% | -1.601% |
| `Cc1nnc2n1CCN(Cc1nc3ccccc3o1)C2` | -15.17% | 0.273% | 4.819% | -1.278% |
| `CSCc1nc(CCNC(=O)C(N)c2c(C)n[nH]c2C)cs1` (configuration not stated) | -40.06% | 4.719% | 1.901% | 5.603% |
| `O[C@@H]1C[C@H]2CN(Cc3ccccc3Cl)[C@H](Cc3ccccc3)CN2C1` | -7.356% | 1.508% | 8.447% | 0.7362% |
| `CSc1ccc(OCCN2CCC(n3cncn3)CC2)cc1` | -6.355% | 2.79% | 9.421% | 0.9726% |
| `O=C(NCC(O)c1cccc(F)c1)C1CCN(C2CCCCC2)CC1` (configuration not stated) | -3.514% | -4.359% | 2.577% | 7.899% |
| `CCN(CC1CCOC1)C(=O)Nc1ccc(N2CCCC2)nc1` (configuration not stated) | -11.54% | 2.747% | 7.513% | -2.04% |
| `COCCNC(=O)[C@@H]1CN(Cc2sccc2C)C[C@H]2OCC[C@H]21` | -0.8478% | 3.153% | 2.836% | 1.735% |
| `Cc1ccccc1C1CCN(CCn2cc(-c3cccc(O)c3)nn2)C1` (configuration not stated) | 22.67% | 11.04% | - | -3.579% |
| `COC(=O)c1ccc(N2CCC(C(O)c3ccccc3)CC2)nn1` (configuration not stated) | -59.16% | 1.445% | - | 3.479% |
| `O=C(NCCN1CCC(c2cccs2)CC1)Nc1cccs1` | -4.554% | 2.067% | -12.58% | -0.7071% |
| `CN(CCCC1CCCC1)C(=O)c1cc(CN2CCC(O)CC2)on1` | 23.36% | -0.3018% | 7.613% | -3.714% |
| `Cn1cc(C[C@H]2[C@H](N3CCOCC3)CCN2C(=O)c2ccco2)cn1` | -11.58% | -3.7% | 0% | -5.064% |
| `CN(Cc1ccccc1)CC(O)Cn1cnc2sccc2c1=O` (configuration not stated) | -23.64% | -6.15% | 0.7895% | 1.814% |
| `CC1(Cc2cccnc2)NCCc2[nH]cnc21` (configuration not stated) | 4.847% | -1.165% | 0.6593% | -1.699% |
| `Cc1ccc(Cl)cc1-n1nnnc1C1(N2CCCC2)CCCC1` | 0.2692% | -3.039% | 1.863% | 7.425% |
| `COc1ccc(CNC(=O)NCc2nc(C)c(C)s2)cn1` | -41.54% | -2.786% | - | 2.326% |
| `c1cnc(-c2noc(C3CN(Cc4ccc5c(c4)CCO5)C3)n2)cn1` | -27.3% | 0.6839% | 10.36% | 3.791% |
| `COc1ccc(OCCN(C)C(=O)c2ccc(OC)cc2O)cc1` | 4.465% | -3.592% | 6.3% | -19.22% |
| `Cc1nn(C)c(=O)c2nn(-c3ccc(F)cc3)c(C)c12` | 17.29% | 4.619% | -3.774% | 0.2418% |
| `COc1ccc(Cl)cc1S(=O)(=O)N(C)CC(=O)Nc1ccccc1` | - | -0.6101% | -4.904% | 0.975% |
| `CC(=O)N1CCCC2(CCN(C(=O)c3ccc(Cl)c(C(F)(F)F)c3)C2)C1` (configuration not stated) | -9.248% | -3.313% | 12.61% | 3.86% |
| `Cc1nc(N2CCN(C)CC2)ncc1C(=O)N1CCN(C)CC1` | -12.62% | -0.3393% | 0.1318% | 3.864% |
| `CCc1ccc(CN2CCc3ncnc(-c4cccnc4)c3CC2)o1` | -3.991% | 1.724% | 4.691% | 2.037% |
| `O=C1NCCCCC1SCc1coc(-c2ccc(F)cc2)n1` (configuration not stated) | 3.852% | -22.91% | - | -7.262% |
| `NC[C@H]1CC[C@H](C(NC(=O)c2cccc(F)c2)c2ccccn2)CC1` (some centres not stated) | -11.8% | 3.25% | 3.01% | 1.914% |
| `COCC(=O)N1CCC2(CC1)CNc1ccc(F)cc12` | -25.77% | 0.3526% | 8.75% | 0.8812% |
| `Fc1cccc(-n2ccc(CN3CCCC3Cn3cccn3)n2)c1` (configuration not stated) | -6.585% | -4.206% | 3.823% | -0.332% |
| `O=C(CC(F)(F)F)N1CCc2onc(Cn3cccn3)c2C1` | 0.3985% | -0.8718% | 0.4202% | 2.834% |
| `Cc1oncc1C(=O)N1CC[C@H]2[C@H]1CCN2Cc1ccccn1` | 4.554% | -2.49% | 6.266% | -9.577% |
| `CN1CCCC2(CC1)CCN(C(=O)CCc1ccccc1O)CC2` | -28.2% | -4.187% | -2.583% | 1.715% |
| `O=C(COC1CCOC1)N(CC(F)F)c1cccc(Cl)c1` (configuration not stated) | -27.35% | -2.233% | 2.233% | -1.479% |
| `Cn1ncc2c(N3CCC(CCO)CC3)nc(C(C)(C)C)nc21` | 2.798% | 0.5128% | -3.44% | 0.4174% |
| `Cc1ccc(C2CC(=O)NCc3nc(N)sc32)cc1C` (configuration not stated) | -37.15% | 5.514% | 11.49% | 3.339% |
| `O=C(NCC(F)(F)C(F)F)c1ccncc1` | -9.349% | -2.015% | -0.216% | 3.829% |
| `Cc1cc(NC(=O)c2nn(C3CCS(=O)(=O)C3)c3c2CCCC3)no1` (configuration not stated) | -9.76% | 0.678% | 1.392% | 2.573% |
| `COc1ccc(C(=O)Nc2ccccc2C(C)C)c(OC)n1` | - | - | 0.7282% | 4.256% |
| `Cc1cc(CN2CC[C@H]3OCC[C@@]3(C(=O)NCc3ccco3)C2)no1` | -15.79% | -3.58% | 0% | 1.199% |
| `CO[C@H]1CN(C(=O)c2ccccn2)[C@@H]2CCCO[C@H]12` | -17.83% | 3.4% | -1.028% | 0.4308% |
| `CCNC(=O)NCC(CC)(OC)c1ccccc1` (configuration not stated) | -19.73% | -2.66% | 4.863% | 2.343% |
| `Cc1cc2ccccc2n1CCC(=O)N1CCCC(O)(CN(C)C)CC1` (configuration not stated) | 2.925% | -2.22% | 1.104% | 0.1155% |
| `O=C(N[C@@H]1CCN(c2ncc(Cl)cc2Cl)C[C@H]1O)c1cnccn1` | -13.08% | -1.458% | 1.587% | 2.39% |
| `Cc1cnn(CC2CCCN2C(=O)c2cccc3c2OCO3)c1` (configuration not stated) | -7.906% | 0.2441% | -1.944% | 19.43% |
| `CN1CCN(CC(NCc2ccc(F)cc2)c2ccccc2)CC1` (configuration not stated) | -13.25% | 0.9804% | 1.781% | 7.126% |
| `Cc1cc(C)cc(CN2CCN(Cc3cc(C#N)n(C)c3)CC2=O)c1` | -30.01% | 4.487% | 2.457% | 6.69% |
| `CCc1nc(C2CCCN2Cc2nc(Cc3ccccc3)no2)no1` (configuration not stated) | -2.72% | -2.197% | 0.6479% | -1.152% |
| `CCc1ccc(C(=O)N2CCCCC2CNS(C)(=O)=O)o1` (configuration not stated) | -36.5% | -4.601% | -4.968% | 4.607% |
| `CCC(C)N(Cc1ccncc1)C(=O)CCC(=O)OC` (configuration not stated) | -38.98% | 0.7524% | 2.439% | 3.282% |
| `Cn1cc(C#N)c(=O)n(CC(O)c2ccccc2F)c1=O` (configuration not stated) | -12.54% | -5.408% | 5.627% | 1.628% |
| `Cc1cnn(CC2CCCCN2C(=O)c2csc(C)n2)c1` (configuration not stated) | -27.1% | -4.089% | -1.654% | 1.608% |
| `Cc1cc(N2CCN(C3CCSCC3)CC2)n2nc(C)c(C)c2n1` | 0.1727% | -0.2694% | 1.333% | -1.281% |
| `CCc1cc(NCCc2cnccn2)n2nc(C)c(C)c2n1` | - | -2.308% | 16.21% | 3.919% |
| `CC(C)c1cc(N[C@@H](CO)C(N)=O)n2nccc2n1` | -13.71% | 0.9449% | -0.7673% | 0.8663% |
| `CCCn1cc(C(=O)N(C)Cc2nc(-c3ccccn3)no2)c(C)n1` | -14.06% | 0.3552% | 0% | 1.201% |
| `Cc1nc(CN2CCN(C(=O)CCc3cccc(Cl)c3)CC2)no1` | 3.519% | 10.11% | -5.15% | 1.858% |
| `O=C(N1CCOCC1)N1CCc2ncnc(NC3CC3)c2CC1` | -16.23% | 2.251% | -6.418% | 3.167% |
| `Cc1cncc(C(=O)N2CCCC3(CCCN3S(C)(=O)=O)C2)c1` (configuration not stated) | -31.11% | -1.444% | -0.9346% | 2.337% |
| `O=S(=O)(Nc1ccc2c(c1)OCCO2)N1CCCCC1` | -1.174% | 2.142% | -3.639% | -2.208% |
| `Cn1cccc1C1CCCCCN1C(=O)c1ccc(NC2CC2)nc1` (configuration not stated) | -25.72% | 20.03% | 8.095% | -0.3466% |
| `CN(C)S(=O)(=O)N1CCOC(c2cccc(-c3cncnc3)n2)C1` (configuration not stated) | 2.355% | -1.11% | 12.59% | -0.9987% |

Repeated from the top, 3 entries:

For CC1=Nc2c(c(=O)[nH]n2C(C)C)C(c2ccc3c(c2)n(C)c(=O)n3C)S1 (configuration not stated) the result was Pks13 thioesterase: -16.29%; MtTrpRS: -2.311%; CoaBC: 4.293%; PfKRS1: 5.14%.
For CCN(CC)C(=O)c1ccc(Cl)c(NC(=O)c2cc(C(C)C)on2)c1 the result was Pks13 thioesterase: -32.96%; MtTrpRS: -0.9397%; CoaBC: -2.469%; PfKRS1: 4.122%.
For CC(C)NC(=O)[C@@H]1C[C@H]2NCC[C@H]2O1 the result was CoaBC: 1.728%; PfKRS1: 3.535%.